From article PMC8329294
Results are given in words; binding and its absence hold for the method and conditions named. Binding seen in cells or lysates may run through a third protein. Some entries that bind do so weakly or less than the wild type.

Protein sequences, listed by entry. Tags and fused reporters are not part of them.
UniProt P49915: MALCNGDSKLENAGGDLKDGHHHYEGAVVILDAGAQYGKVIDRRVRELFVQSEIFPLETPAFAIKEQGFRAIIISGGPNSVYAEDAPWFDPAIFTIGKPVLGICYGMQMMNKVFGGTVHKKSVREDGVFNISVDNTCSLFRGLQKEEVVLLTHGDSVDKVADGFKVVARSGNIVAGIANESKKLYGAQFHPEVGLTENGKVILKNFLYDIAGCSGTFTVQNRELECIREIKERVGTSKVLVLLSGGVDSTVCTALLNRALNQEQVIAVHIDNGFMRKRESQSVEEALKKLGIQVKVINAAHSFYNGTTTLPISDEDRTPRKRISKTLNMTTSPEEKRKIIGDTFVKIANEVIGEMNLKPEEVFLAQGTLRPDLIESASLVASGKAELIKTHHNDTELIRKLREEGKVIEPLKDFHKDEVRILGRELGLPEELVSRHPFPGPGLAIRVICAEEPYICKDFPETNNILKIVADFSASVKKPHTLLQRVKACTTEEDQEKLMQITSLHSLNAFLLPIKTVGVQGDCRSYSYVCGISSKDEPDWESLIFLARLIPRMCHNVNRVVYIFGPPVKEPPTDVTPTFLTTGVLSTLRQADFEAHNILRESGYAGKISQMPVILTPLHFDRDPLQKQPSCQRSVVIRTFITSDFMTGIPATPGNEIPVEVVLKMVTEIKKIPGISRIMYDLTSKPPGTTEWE
UniProt P19474: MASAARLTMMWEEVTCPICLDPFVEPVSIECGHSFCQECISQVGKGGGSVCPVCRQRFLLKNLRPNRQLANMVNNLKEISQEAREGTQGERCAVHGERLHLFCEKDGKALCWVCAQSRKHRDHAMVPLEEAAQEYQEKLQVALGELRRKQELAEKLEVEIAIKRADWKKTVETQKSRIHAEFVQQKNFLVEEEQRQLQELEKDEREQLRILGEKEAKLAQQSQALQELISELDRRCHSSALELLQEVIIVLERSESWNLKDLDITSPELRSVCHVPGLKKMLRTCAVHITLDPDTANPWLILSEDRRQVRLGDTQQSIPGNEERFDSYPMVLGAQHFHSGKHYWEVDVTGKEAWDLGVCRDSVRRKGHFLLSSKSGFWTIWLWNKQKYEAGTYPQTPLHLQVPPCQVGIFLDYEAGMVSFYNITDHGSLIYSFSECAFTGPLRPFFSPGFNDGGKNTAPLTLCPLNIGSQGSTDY

What was measured:
[1] = molecular target: Guanosine 5'-monophosphate synthase (GMPS), endogenous (human (endogenous in MCF-7 and DU4475)) (UniProt P49915); experiment: co-IP; endogenous proteins in lysates of MCF-7 and DU4475 cells (SNORD50A/B knocked out, ectopically expressed, restored, or control); lysates with the indicated antibody or IgG at 4 °C for 4-5 h, then protein A/G-agarose beads at 4 °C overnight; western blot
[2] = molecular target: TRIM21 (pcDNA3.1-TRIM21) (human) (UniProt P19474); experiment: co-IP; HIS-GMPS and TRIM21 co-expressed in 293T cells (control, SNORD50A/B-deleted, SNORD50A/B re-expressed); immunoprecipitation and western blot
[3] = molecular target: E3 ubiquitin ligase TRIM21, endogenous (human (endogenous in MCF-7 and DU4475)) (UniProt P19474); experiment: co-IP; endogenous proteins in lysates of MCF-7 and DU4475 cells (SNORD50A/B knocked out, ectopically expressed, restored, or control); lysates with the indicated antibody or IgG at 4 °C for 4-5 h, then protein A/G-agarose beads at 4 °C overnight; western blot

| Substance | binding [1] | further results |
| --- | --- | --- |
| USP7, endogenous (from UniProt Q93009 1-1102) (enzyme) | binds | – |
| His-GMPS (pcDNA3.1-HIS-GMPS) (from UniProt P49915 1-693) | – | binding [2]: binds |
| Guanosine 5'-monophosphate synthase (GMPS), endogenous (from UniProt P49915 1-693) | – | binding [3]: binds |
| p53 (wild-type), endogenous (from UniProt P04637 1-393) | binds | – |
